Measurements reported in PubChem BioAssay AID1487 (National Center for Advancing Translational Sciences (NCATS), 2009).
This is one part of the list. Shown are side measurements of this screen, not its main read-out; they come without a call. Compounds called inactive in the main read-out are mostly missing here. Words in brackets tell the shape of the fitted curve; partial curves, single points and poor fits give uncertain potencies.

Assay: qHTS Assay for Modulators of Lamin A Splicing
Settings: HeLa LMNA splicing GFP/RFP minigene ratio, 48 h
Procedure, shortened: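 S3 HeLa stable clones carrying a lamin A-EGFP splicing minigene plus DsRed2 were seeded at 600 cells/well in Opti-MEM with 2% FBS, pin-dosed and incubated 48 h at 37°C. Acumen cytometry (488 nm) gave the GFP/RFP total-intensity ratio.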

[1] = measured here: GFP splicing reporter channel
[2] = measured here: RFP viability control channel

| SMILES | AC50 [1] | AC50 [2] |
| --- | --- | --- |
| Cc1ccc(/C=N/N2C(=S)SC(C)(C)C2N(O)C(=O)Nc2ccc([N+](=O)[O-])cc2)cc1 (stereo not given) | 12.6 µM [falling, single point] | 20 µM [falling, single point] |
| COC(=O)CCC(=O)NNC(=O)Cc1ccccc1 |  | 3.55 µM [falling, partial curve, poor fit] |
| Cc1cccc(C(=O)Oc2ccccc2/C=N/NC(=O)c2ccc(NC(=O)C(C)(C)C)cc2)c1 |  | 3.16 µM [rising, full curve] |
| C=CCNC(=O)c1onc(CSc2cccc(C)c2)c1C(=O)O | 0.0158 µM [falling, partial curve] |  |
| CCc1c(C)sc2c1CCN(Cc1ccccc1)C2c1ccccc1 (stereo not given) |  | 35.5 µM [rising, single point] |
| O=C(CSc1ccccc1)Nc1cccc(S(=O)(=O)N2CCCC2)c1 |  | 3.98 µM [rising, full curve, poor fit] |
| O=C(COc1ccc(Cl)cc1)NCc1nnc2c3ccccc3c(-c3ccccc3)nn12 | 14.1 µM [rising, partial curve, poor fit] | 20 µM [rising, partial curve, poor fit] |
| Cc1cc(C)c(C(=O)COC(=O)c2cccnc2Cl)c(C)c1 |  | 0.708 µM [rising, partial curve] |
| O=C(NC1=NCCS1)c1sc2ccccc2c1Cl | 22.4 µM [rising, single point] | 22.4 µM [rising, single point] |
| CNc1nc(Cl)nc(Nc2ccccc2)n1 |  | 6.31 µM [rising, full curve, poor fit] |
| Cc1[nH]c2ccccc2c1C(=O)CN1CCSCC1 |  | 8.91 µM [rising, partial curve, poor fit] |
| Cc1ccc(-n2ncc(C(=O)NCc3ccc4c(c3)OCO4)c2NC(=O)c2ccco2)cc1C | 3.98 µM [rising, full curve, poor fit] | 2.82 µM [rising, full curve, poor fit] |
| Cc1cc(/C=C2/C(=N)N3C(c4ccccc4)=CSC3=NC2=O)c(C)n1-c1ccccc1 |  | 17.8 µM [rising, partial curve, poor fit] |
| COCCCNCCCOc1ccc(C(C)(C)c2ccccc2)cc1 | 3.98 µM [rising, partial curve] | 0.501 µM [rising, full curve, poor fit] |
| CCOCCCNC(=O)c1ccccc1OC1CCN(S(C)(=O)=O)CC1 |  | 0.0141 µM [rising, full curve, poor fit] |
| COc1cc(CC(NC(C)=O)C(=O)NC2CCN(C(=O)C3CC3)CC2)cc(OC)c1 (stereo not given) | 2.82 µM [rising, single point] |  |
| COc1cc(NC(=S)NCCSc2ccc(C)cc2)cc(OC)c1 |  | 35.5 µM [rising, single point] |
| CC1CCc2c(nc3ncnn3c2N2CCN(c3ccccc3)CC2)C1 (stereo not given) | 17.8 µM [rising, partial curve, poor fit] | 14.1 µM [rising, single point] |
| COC(=O)Nc1ccc2c(c1)N(C(=O)CCN1CCN3CCCC3C1)c1ccccc1S2 (stereo not given) |  | 35.5 µM [rising, single point] |

| SMILES | AC50 [1] | AC50 [2] |
| --- | --- | --- |
| Cc1cccc(Cn2cc(/C=C/[N+](=O)[O-])c3ccccc32)c1 | 22.4 µM [falling, single point] | 25.1 µM [falling, partial curve] |
| CCc1ccc(S(=O)(=O)c2cn(C)c3cc(N4CCOCC4)c(F)cc3c2=O)cc1 | 22.4 µM [falling, partial curve] | 11.2 µM [falling, partial curve] |
| CCOC(=O)/C(=C\c1cn(C)c2ccccc12)[N+](=O)[O-] |  | 35.5 µM [rising, single point] |
| O=c1[nH]n2c(=O)c3c([nH]c2c1N=Nc1cccc(Cl)c1)CCC3 | 31.6 µM [rising, single point] | 31.6 µM [rising, single point] |
| COc1ccc(-c2nc(-c3cc4cc(Br)ccc4oc3=O)cs2)cc1 | 12.6 µM [rising, partial curve] |  |
| COc1ccccc1CNC(=O)c1ccc(S(=O)(=O)N2CCCC2)cc1 | 14.1 µM [rising, single point] | 11.2 µM [rising, single point] |
| N#CC(Cc1ccc(O)c(O)c1)C(=O)N1CCc2ccccc21 (stereo not given) | 12.6 µM [falling, partial curve] | 11.2 µM [falling, partial curve] |
| CN1/C(=C\C(=S)NC(=O)c2cccc(Br)c2)C(C)(C)c2ccccc21 |  | 35.5 µM [rising, partial curve, poor fit] |
| O=C(O)/C(=C/c1c(C(=O)O)[nH]c2cc(Cl)cc(Cl)c12)c1ccccc1 | 5.62 µM [falling, partial curve, poor fit] | 6.31 µM [falling, partial curve, poor fit] |
| CS(=O)(=O)N1CCN(c2ccccc2NC(=O)c2cccc3ccccc23)CC1 |  | 5.62 µM [rising, partial curve, poor fit] |
| Cc1nn(Cc2cccc(C(=O)Nc3ccn(Cc4c(F)c(F)cc(F)c4F)n3)c2)c(C)c1[N+](=O)[O-] |  | 7.08 µM [falling, full curve, poor fit] |
| O=C(NNC(=O)C1CCCN(S(=O)(=O)c2cccc(F)c2)C1)C1CC1 (stereo not given) | 7.08 µM [falling, partial curve] |  |
| Cc1cc(C)cc(N=Cc2ccc([N+](=O)[O-])s2)c1 | 7.94 µM [falling, partial curve, poor fit] | 0.891 µM [falling, full curve, poor fit] |
| O=C(Nc1ccc(Br)cc1)c1ccc(F)c(S(=O)(=O)NC2CCCCCC2)c1 | 22.4 µM [falling, single point] | 15.8 µM [falling, single point] |
| O=C(/C=C\c1ccco1)c1ccc(NC(=O)c2ccco2)cc1 | 1.12 µM [falling, full curve, poor fit] |  |
| Cc1ccccc1-c1nc(SCC(=O)NCc2ccc(F)cc2)c2c(=O)n(C)c(=O)n(C)c2n1 | 0.316 µM [rising, full curve, poor fit] |  |
| CCOc1ccc(NC(=NCc2ccc3c(c2)OCO3)SC2CC(=O)N(c3ccc(C(=O)O)cc3)C2=O)cc1 (stereo not given) |  | 31.6 µM [rising, single point] |
| O=S(=O)(/C=C/c1ccccc1)NC1CCCCCCC1 | 11.2 µM [rising, single point] |  |
| COc1ccc(Cl)cc1C(=O)N(Cc1nc(-c2cccc(C)c2)no1)C(C)C |  | 35.5 µM [rising, single point] |

In the list so far, 3 have bromine.

| SMILES | AC50 [1] | AC50 [2] |
| --- | --- | --- |
| COc1ccc(-c2nc(-c3cc4cc(Br)ccc4oc3=O)cs2)cc1 | 12.6 µM [rising, partial curve] |  |
| CN1/C(=C\C(=S)NC(=O)c2cccc(Br)c2)C(C)(C)c2ccccc21 |  | 35.5 µM [rising, partial curve, poor fit] |
| O=C(Nc1ccc(Br)cc1)c1ccc(F)c(S(=O)(=O)NC2CCCCCC2)c1 | 22.4 µM [falling, single point] | 15.8 µM [falling, single point] |

Following part

| SMILES | AC50 [1] | AC50 [2] |
| --- | --- | --- |
| COc1ccc(CCNc2ncnc3sccc23)cc1OC |  | 0.01 µM [falling, full curve, poor fit] |
| Cc1ccc(C)c(N2CCN(CCCNC(=O)c3ccc4nc(CCc5ccccc5)oc4c3)CC2)c1 | 10 µM [falling, partial curve] | 12.6 µM [falling, partial curve] |
| Cc1cc(C)c2c(NC(=O)c3ccccc3)c(C(=O)Nc3ccc(F)cc3)sc2n1 |  | 0.00447 µM [falling, full curve, poor fit] |
| CN(C(=S)NC(=O)/C=C/c1ccc(F)cc1)C1CCCCC1 |  | 0.708 µM [falling, partial curve, poor fit] |
| Cc1ccc(C(=O)CSc2nc(C)cc(C)c2C(N)=O)cc1 |  | 11.2 µM [rising, partial curve] |
| CCOc1ccc(N2CC(NC(=O)C3CCCC3)CC2=O)cc1 (stereo not given) | 0.0447 µM [falling, full curve, poor fit] |  |
| O=C(CSCc1cccc(Br)c1)NC1CC1 | 12.6 µM [rising, single point] |  |
| CSCCC(NS(=O)(=O)c1ccc(Cl)cc1)C(=O)OCc1cccc(Cl)c1 (stereo not given) | 0.891 µM [rising, partial curve] | 35.5 µM [rising, single point] |
| COc1ccc(-c2nn3c(-c4ccccc4)nnc3s2)cc1 |  | 35.5 µM [rising, single point] |
| CC(C)c1ccc(/C=C/C(=O)N2CCc3ccccc3C2)cc1 |  | 35.5 µM [rising, single point] |
| CCOC(=O)C1(Cc2ccccc2)CCN(Cc2ccc(C)s2)CC1 | 35.5 µM [falling, single point] |  |
| COc1ccc(C(=O)c2sc(Nc3ccccc3)nc2N)cc1 | 2.82 µM [falling, partial curve, poor fit] | 12.6 µM [falling, partial curve, poor fit] |
| Cc1cc(Cl)c(OCCCN2CCCCC2)c(Br)c1 |  | 7.94 µM [rising, partial curve] |
| COC(=O)C1=C(CSc2nc3ccccc3s2)NC(=O)NC1c1ccc(F)cc1 (stereo not given) | 14.1 µM [rising, partial curve] | 12.6 µM [rising, single point] |
| OCCN1CCN(CC(O)C(F)(F)F)CC1 (stereo not given) |  | 0.355 µM [rising, partial curve] |
| CN1CCC(N(C)C(=O)CCc2nc3ccccc3n2-c2ccccc2)CC1 |  | 5.62 µM [falling, single point] |
| CCCCCCC(C)n1cc(C(C)=O)c(=O)n(C)c1=O (stereo not given) |  | 35.5 µM [rising, single point] |
| Cc1c(C(=O)O)oc2c1/C(=N\O)CC(C)(C)C2 | 14.1 µM [rising, single point] | 0.0224 µM [rising, full curve, poor fit] |
